Measurements: article PMC9035678
No constants are given. Whether binding was seen depends on the method and setting. Binding seen in cells or lysates may run through a third protein. A yes stands for co-enrichment or nearness to the bait. Other partners may have been found. Sequences can lack the tags named with a protein.

Sequences of proteins named here, by UniProt entry; tags and fusion partners are left off.
UniProt Q39255: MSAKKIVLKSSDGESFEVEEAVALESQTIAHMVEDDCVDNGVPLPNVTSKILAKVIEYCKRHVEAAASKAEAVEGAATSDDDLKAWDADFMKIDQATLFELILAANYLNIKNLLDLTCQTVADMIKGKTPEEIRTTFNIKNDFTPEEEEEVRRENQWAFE
UniProt Q94AH6: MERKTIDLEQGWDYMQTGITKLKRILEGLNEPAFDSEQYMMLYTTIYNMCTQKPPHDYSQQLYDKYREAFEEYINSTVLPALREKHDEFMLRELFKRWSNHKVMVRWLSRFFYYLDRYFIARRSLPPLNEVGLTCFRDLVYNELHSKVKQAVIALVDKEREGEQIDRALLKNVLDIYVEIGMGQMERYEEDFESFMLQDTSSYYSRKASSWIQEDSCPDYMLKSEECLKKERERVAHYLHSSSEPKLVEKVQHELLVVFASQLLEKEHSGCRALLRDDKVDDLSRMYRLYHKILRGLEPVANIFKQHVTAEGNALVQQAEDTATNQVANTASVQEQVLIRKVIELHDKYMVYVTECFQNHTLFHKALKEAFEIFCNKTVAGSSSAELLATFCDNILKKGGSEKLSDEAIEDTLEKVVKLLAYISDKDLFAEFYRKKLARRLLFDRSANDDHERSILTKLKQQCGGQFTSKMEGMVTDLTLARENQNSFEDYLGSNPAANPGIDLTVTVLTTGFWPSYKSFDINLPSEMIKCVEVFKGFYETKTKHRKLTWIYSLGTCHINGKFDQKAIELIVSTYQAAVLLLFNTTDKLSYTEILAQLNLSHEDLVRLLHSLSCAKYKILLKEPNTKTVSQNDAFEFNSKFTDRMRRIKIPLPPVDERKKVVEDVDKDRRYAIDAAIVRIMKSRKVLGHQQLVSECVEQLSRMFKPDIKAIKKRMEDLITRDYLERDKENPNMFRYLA

T1: 3HA-FBW2 (3x human influenza hemagglutinin (HA)-epitope at the N terminus of FBW2) (Arabidopsis thaliana) (UniProt Q9ZPE4)
T1 sequence: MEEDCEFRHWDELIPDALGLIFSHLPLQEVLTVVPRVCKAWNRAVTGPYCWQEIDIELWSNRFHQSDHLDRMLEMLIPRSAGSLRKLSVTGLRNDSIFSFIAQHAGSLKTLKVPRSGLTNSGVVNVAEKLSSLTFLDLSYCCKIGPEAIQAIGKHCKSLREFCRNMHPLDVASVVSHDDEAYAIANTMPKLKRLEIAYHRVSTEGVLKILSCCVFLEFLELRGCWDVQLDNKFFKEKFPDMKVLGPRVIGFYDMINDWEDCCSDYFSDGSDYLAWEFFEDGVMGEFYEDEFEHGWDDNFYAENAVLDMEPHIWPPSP

B1: ASK20 (protein, UniProt A8MQG7 1-352)
chain: MSEGDLAVMKPETMKSYIWLQTADGSIQQVEQEVAMFCPMICQEVIQKGVGSSKNHAISLPQRVNPAMFSLILDYCRFHQLPGRSNKERKTYDERFIRMDTKRLCELTSAADSLQLKPLVDLTSRALARIIEGKNPEEIREIFHLPDDLTEEEKLEPLKNSMDDPRIRLLNRLYAKKRKELKERERLKNVEVEEHVDERSVDDLLSFINGRDHKAVKMSKGKKKKKKKKDQKIVSSNNIHDKESHDLRSKQQCVEEIGSSMREVPNLLSAEDDISTPNAGSEDEDIDDEIDPAMRELLDREVEDFAQRLNSNWVRSLGKERRPVHFSINGNGTTRRHTGMVSIWRPCMFTLF
B2: ASK21 (protein, UniProt Q8LF97 1-351)
chain: MSEGEMAIIKPEMMKSYIWLETADGSIQQVEQEVAMFCPMICQEVIQKGVGSSKNYAISLPQRVNPAMLSLIFDYCRFHQVPGRSNKERKVYDEKFIRMDTKRLCELTSAADSLQLKPLVDLTSRALARIIEGKTPEEIREIFHLPDDLTEEEKLEPLKNTMDDPRIRLLNRLYAKKRKELKEREKLKSVEVEEHVDERSVDDLLSFINGRDPKVVKTSKSKKKNKKRKEQKNGSSNGTCEALEKDLHNLDSKSQSAEIVDNTASCLGDVSNLPSMEDDIFTPKTEFEDGYIDDEIDPALKELLDREVEDFARRLNSSWVLSIGQERQPVNFSINGNGTSRRLTGPAAGHK
B3: ARGONAUTE1 (AGO1) (protein, UniProt O04379 1-1048)
chain: MVRKRRTDAPSEGGEGSGSREAGPVSGGGRGSQRGGFQQGGGQHQGGRGYTPQPQQGGRGGRGYGQPPQQQQQYGGPQEYQGRGRGGPPHQGGRGGYGGGRGGGPSSGPPQRQSVPELHQATSPTYQAVSSQPTLSEVSPTQVPEPTVLAQQFEQLSVEQGAPSQAIQPIPSSSKAFKFPMRPGKGQSGKRCIVKANHFFAELPDKDLHHYDVTITPEVTSRGVNRAVMKQLVDNYRDSHLGSRLPAYDGRKSLYTAGPLPFNSKEFRINLLDEEVGAGGQRREREFKVVIKLVARADLHHLGMFLEGKQSDAPQEALQVLDIVLRELPTSRYIPVGRSFYSPDIGKKQSLGDGLESWRGFYQSIRPTQMGLSLNIDMSSTAFIEANPVIQFVCDLLNRDISSRPLSDADRVKIKKALRGVKVEVTHRGNMRRKYRISGLTAVATRELTFPVDERNTQKSVVEYFHETYGFRIQHTQLPCLQVGNSNRPNYLPMEVCKIVEGQRYSKRLNERQITALLKVTCQRPIDREKDILQTVQLNDYAKDNYAQEFGIKISTSLASVEARILPPPWLKYHESGREGTCLPQVGQWNMMNKKMINGGTVNNWICINFSRQVQDNLARTFCQELAQMCYVSGMAFNPEPVLPPVSARPEQVEKVLKTRYHDATSKLSQGKEIDLLIVILPDNNGSLYGDLKRICETELGIVSQCCLTKHVFKMSKQYMANVALKINVKVGGRNTVLVDALSRRIPLVSDRPTIIFGADVTHPHPGEDSSPSIAAVVASQDWPEITKYAGLVCAQAHRQELIQDLFKEWKDPQKGVVTGGMIKELLIAFRRSTGHKPLRIIFYRDGVSEGQFYQVLLYELDAIRKACASLEAGYQPPVTFVVVQKRHHTRLFAQNHNDRHSVDRSGNILPGTVVDSKICHPTEFDFYLCSHAGIQGTSRPAHYHVLWDENNFTADGLQSLTNNLCYTYARCTRSVSIVPPAYYAHLAAFRARFYMEPETSDSGSMASGSMARGGGMAGRSTRGPNVNAAVRPLPALKENVKRVMFYC
B4: AGO5 (protein, UniProt Q9SJK3 1-997)
chain: MSNRGGGGHGGASRGRGGGRRSDQRQDQSSGQVAWPGLQQSYGGRGGSVSAGRGRGNVGRGENTGDLTATQVPVASAVSGGRGRGNIGDPTFSVASSSKTVSVASSSKEESKNTEVSETMSNLQITSTETKPEMTSLPPASSKAVTFPVRPGRGTLGKKVMVRANHFLVQVADRDLYHYDVSINPEVISKTVNRNVMKLLVKNYKDSHLGGKSPAYDGRKSLYTAGPLPFDSKEFVVNLAEKRADGSSGKDRPFKVAVKNVTSTDLYQLQQFLDRKQREAPYDTIQVLDVVLRDKPSNDYVSVGRSFFHTSLGKDARDGRGELGDGIEYWRGYFQSLRLTQMGLSLNIDVSARSFYEPIVVTDFISKFLNIRDLNRPLRDSDRLKVKKVLRTLKVKLLHWNGTKSAKISGISSLPIRELRFTLEDKSEKTVVQYFAEKYNYRVKYQALPAIQTGSDTRPVYLPMELCQIDEGQRYTKRLNEKQVTALLKATCQRPPDRENSIKNLVVKNNYNDDLSKEFGMSVTTQLASIEARVLPPPMLKYHDSGKEKMVNPRLGQWNMIDKKMVNGAKVTSWTCVSFSTRIDRGLPQEFCKQLIGMCVSKGMEFKPQPAIPFISCPPEHIEEALLDIHKRAPGLQLLIVILPDVTGSYGKIKRICETELGIVSQCCQPRQVNKLNKQYMENVALKINVKTGGRNTVLNDAIRRNIPLITDRPTIIMGADVTHPQPGEDSSPSIAAVVASMDWPEINKYRGLVSAQAHREEIIQDLYKLVQDPQRGLVHSGLIREHFIAFRRATGQIPQRIIFYRDGVSEGQFSQVLLHEMTAIRKACNSLQENYVPRVTFVIVQKRHHTRLFPEQHGNRDMTDKSGNIQPGTVVDTKICHPNEFDFYLNSHAGIQGTSRPAHYHVLLDENGFTADQLQMLTNNLCYTYARCTKSVSIVPPAYYAHLAAFRARYYMESEMSDGGSSRSRSSTTGVGQVISQLPAIKDNVKEVMFYC
B5: AGO10 (protein, UniProt Q9XGW1 1-988)
chain: MPIRQMKDSSETHLVIKTQPLKHHNPKTVQNGKIPPPSPSPVTVTTPATVTQSQASSPSPPSKNRSRRRNRGGRKSDQGDVCMRPSSRPRKPPPPSQTTSSAVSVATAGEIVAVNHQMQMGVRKNSNFAPRPGFGTLGTKCIVKANHFLADLPTKDLNQYDVTITPEVSSKSVNRAIIAELVRLYKESDLGRRLPAYDGRKSLYTAGELPFTWKEFSVKIVDEDDGIINGPKRERSYKVAIKFVARANMHHLGEFLAGKRADCPQEAVQILDIVLRELSVKRFCPVGRSFFSPDIKTPQRLGEGLESWCGFYQSIRPTQMGLSLNIDMASAAFIEPLPVIEFVAQLLGKDVLSKPLSDSDRVKIKKGLRGVKVEVTHRANVRRKYRVAGLTTQPTRELMFPVDENCTMKSVIEYFQEMYGFTIQHTHLPCLQVGNQKKASYLPMEACKIVEGQRYTKRLNEKQITALLKVTCQRPRDRENDILRTVQHNAYDQDPYAKEFGMNISEKLASVEARILPAPWLKYHENGKEKDCLPQVGQWNMMNKKMINGMTVSRWACVNFSRSVQENVARGFCNELGQMCEVSGMEFNPEPVIPIYSARPDQVEKALKHVYHTSMNKTKGKELELLLAILPDNNGSLYGDLKRICETELGLISQCCLTKHVFKISKQYLANVSLKINVKMGGRNTVLVDAISCRIPLVSDIPTIIFGADVTHPENGEESSPSIAAVVASQDWPEVTKYAGLVCAQAHRQELIQDLYKTWQDPVRGTVSGGMIRDLLISFRKATGQKPLRIIFYRDGVSEGQFYQVLLYELDAIRKACASLEPNYQPPVTFIVVQKRHHTRLFANNHRDKNSTDRSGNILPGTVVDTKICHPTEFDFYLCSHAGIQGTSRPAHYHVLWDENNFTADGIQSLTNNLCYTYARCTRSVSIVPPAYYAHLAAFRARFYLEPEIMQDNGSPGKKNTKTTTVGDVGVKPLPALKENVKRVMFYC
B6: DNAJ homolog J3 (protein, UniProt Q94AW8 1-420)
chain: MFGRGPSKKSDNTKFYEILGVPKSASPEDLKKAYKKAAIKNHPDKGGDPEKFKELAQAYEVLSDPEKREIYDQYGEDALKEGMGGGGGGHDPFDIFSSFFGGGPFGGNTSRQRRQRRGEDVVHPLKVSLEDVYLGTMKKLSLSRNALCSKCNGKGSKSGASLKCGGCQGSGMKVSIRQLGPGMIQQMQHACNECKGTGETINDRDRCPQCKGDKVIPEKKVLEVNVEKGMQHSQKITFEGQADEAPDTVTGDIVFVLQQKEHPKFKRKGEDLFVEHTLSLTEALCGFQFVLTHLDGRSLLIKSNPGEVVKPDSYKAISDEGMPIYQRPFMKGKLYIHFTVEFPDSLSPDQTKALEAVLPKPSTAQLSDMEIDECEETTLHDVNIEDEMRRKAQAQREAYDDDDEDDDHPGGAQRVQCAQQ

These molecules were tested against T1, 3HA-FBW2 (3x human influenza hemagglutinin (HA)-epitope at the N terminus of FBW2) (Arabidopsis thaliana) (assay: affinity purification with mass spectrometry; HA-tagged FBW2 purified on anti-HA magnetic microbeads from formaldehyde (0.375%) cross-linked extracts of FBW2OE and FBW2OE/ago1-27 seedlings treated with 20 μM MLN4924 for 20 h; Col-0 as control; nanoLC-MS/MS, spectral counts).
For “ASK1 (Skp1-like protein) (from UniProt Q39255 1-160)”, the binding was “binds”. In the case of CUL-like protein 1, the binding is reported as “binds”. In the case of DNAJ homolog J2, the binding is reported as “binds”. In the case of Hsp70, the binding is reported as “binds”. In the case of Hsp80, the binding is reported as “binds”. For Hsp90, the binding was “binds”. With RUB1 the binding was “binds”. “cullin 1 (CUL1) (from UniProt Q94AH6 1-738)” was tested, and the binding was “binds”. B1 was tested, and the binding was “binds”. For B2, the binding was “binds”. With B3 the binding was “binds”. In the case of B4, the binding is reported as “binds”. With B5 the binding was “binds”. B6 was tested, and the binding was “binds”.
